Test results reported in article PMC7819943, “Rice protein-binding microarrays: a tool to detect cis-acting elements near promoter regions in rice”.
This is one part of the list.

Each sequence was assayed against T1, OsSMF1 (Oryza sativa, UniProt Q6ZLB0 1-436) (assay: protein-binding microarray (RPBM); PBS, 2% BSA, 51.3 ng/ul salmon testes DNA, 50 uM zinc acetate, 200 nM TF, 25 C, 1 h; high values mean tight binding). Conditions: protein: recombinant; tags: N-terminal polyhistidine and DsRed monomer fusion (pET32a); chain copies: 2; label: CyDye5-dUTP incorporated in the synthesized complementary strand; 3' TTTTT single-stranded linker to array surface; dsDNA, one strand shown.
T1 sequence: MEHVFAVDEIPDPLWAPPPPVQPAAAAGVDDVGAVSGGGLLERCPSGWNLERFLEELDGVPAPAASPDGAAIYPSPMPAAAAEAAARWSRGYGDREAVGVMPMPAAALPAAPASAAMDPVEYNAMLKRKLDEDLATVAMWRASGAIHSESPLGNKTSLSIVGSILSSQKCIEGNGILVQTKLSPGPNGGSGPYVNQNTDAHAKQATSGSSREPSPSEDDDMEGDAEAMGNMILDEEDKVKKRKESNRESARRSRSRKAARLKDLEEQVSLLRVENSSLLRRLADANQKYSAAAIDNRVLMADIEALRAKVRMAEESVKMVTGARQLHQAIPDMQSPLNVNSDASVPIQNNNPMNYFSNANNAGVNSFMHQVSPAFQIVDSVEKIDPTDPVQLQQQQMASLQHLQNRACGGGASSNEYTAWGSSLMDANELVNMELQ
Method in brief: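 Per-feature fluorescence intensity (arbitrary units), read on an Axon 4000B scanner, is the binding signal. Transcription factors carrying an N-terminal polyhistidine tag and DsRed fusion were expressed in E. coli BL21-CodonPlus and purified on Ni–NTA. A custom Agilent array, made double-stranded by primer extension with Cy5-dUTP and blocked with 2% BSA, was incubated with 200 nM protein in PBS, 2% BSA, salmon testes DNA and 50 µM zinc acetate at 25 °C for 1 h and then washed.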

Sequence	binding signal
TCTTCAGGAGAACGCATGACGCATTGCGTGCGTCTGAATACGGAGTCACCTAGTGCAG	3800 fluorescence intensity (a.u.)
GCTCGCCCAGTGAGTCTGTTGCGTAATAGTAATAATTGATCGGAGTCACCTAGTGCAG	3950 fluorescence intensity (a.u.)
GCGTAGGCGCCGACGACGGCGTCATCAGCGACGACGACATCGGAGTCACCTAGTGCAG	3430 fluorescence intensity (a.u.)
GGGTTACTTTCTCGCGTCACAAATTTTAGCCCTTCTTCTTCGGAGTCACCTAGTGCAG	3430 fluorescence intensity (a.u.)
TAGTCTCCTCCAATCCCCGAATTGTTCATCGTCTGTCGTCCGGAGTCACCTAGTGCAG	3280 fluorescence intensity (a.u.)
CCTCCGATCGATCGATGTGTGTTGGATGGCGCGTCCGTCTCGGAGTCACCTAGTGCAG	3840 fluorescence intensity (a.u.)
TCCAAAATATAGCAACTTTTGACATCATTATATTTTGGGACGGAGTCACCTAGTGCAG	5150 fluorescence intensity (a.u.)
TTTTGGGTGAATGTGACACACCCTAATACCATGAATCTAGCGGAGTCACCTAGTGCAG	3760 fluorescence intensity (a.u.)
CCTGCATGCGCGTGACGCACACCAATCATATCACAACACTCGGAGTCACCTAGTGCAG	4450 fluorescence intensity (a.u.)
ATACCGTACGACTGTCAATTGTCATGATACCGACGGTTACCGGAGTCACCTAGTGCAG	4440 fluorescence intensity (a.u.)
TGGAGTTCTGCCCTGCAGGGGATCACAGAGCAGGGCATAGCGGAGTCACCTAGTGCAG	32000 fluorescence intensity (a.u.)
CATTACATCCAATCCAAGCGTGATGACATATCATCATCCTCGGAGTCACCTAGTGCAG	5270 fluorescence intensity (a.u.)
CGGGATGATGATGAGGAGCTGTTTGAGGGGAACTGGGTGGCGGAGTCACCTAGTGCAG	29900 fluorescence intensity (a.u.)
GCGCCCCATCCACGCGTCATGCATCCACGTCGGGGCTGCACGGAGTCACCTAGTGCAG	11600 fluorescence intensity (a.u.)
AGCGGAGATCGATATATCGCGACGTGTACGGCCACGTCACCGGAGTCACCTAGTGCAG	30600 fluorescence intensity (a.u.)
TGACAGTAGTTCGTGTTCAGTGTACGTGTTCAGTGTTCAGCGGAGTCACCTAGTGCAG	4180 fluorescence intensity (a.u.)
ATCGCTCAGTACCTAAACATTCATTCATCATCGGGCGAACCGGAGTCACCTAGTGCAG	16600 fluorescence intensity (a.u.)
TCTCCAGCGACGCAATTGCGGGCCCCGGGCCGGCGCCAACCGGAGTCACCTAGTGCAG	3200 fluorescence intensity (a.u.)
CACTTGTTTTATCGGTGTGAATTGATGCTGTGCTTGTCATCGGAGTCACCTAGTGCAG	3490 fluorescence intensity (a.u.)
TGTACCTGAAACTATTGTTATGTCCAGGTCAGGAGCAGTGCGGAGTCACCTAGTGCAG	3360 fluorescence intensity (a.u.)
GATGGCTTACGTAATCGGATCCGCCACGCCATCCCGTGCTCGGAGTCACCTAGTGCAG	11700 fluorescence intensity (a.u.)
TTTCACCGATAGCATCATATGTGACGCGTAACTGAAACAACGGAGTCACCTAGTGCAG	4620 fluorescence intensity (a.u.)
AAACAACCAACTTTGCCTGCAAAACGGCAAAGAGATTAACCGGAGTCACCTAGTGCAG	3920 fluorescence intensity (a.u.)
GTTATCCCTAACGAGCTAAAATGCCAGCTCAGCTCGTTAACGGAGTCACCTAGTGCAG	7600 fluorescence intensity (a.u.)
GCATTTCAGCCTCCTCATCAAAGAAATGCTGACAAGAAATCGGAGTCACCTAGTGCAG	3520 fluorescence intensity (a.u.)
TATATATATATATATATATATATATATAACACACACCGTGCGGAGTCACCTAGTGCAG	3560 fluorescence intensity (a.u.)
ATGACGATTGAGAGAGATGATGTAACTATTTATACTCATTCGGAGTCACCTAGTGCAG	3640 fluorescence intensity (a.u.)

Sequence	binding signal
GGAGACGGCGGCGACAGAGGGAGAGGGGAAAGGTGTTTTGCGGAGTCACCTAGTGCAG	4920 fluorescence intensity (a.u.)
TAACCATGTAATTCCTCTGAAAATCCACAGATGAACTAGCCGGAGTCACCTAGTGCAG	3360 fluorescence intensity (a.u.)
GCTGCAGCAGCAGGTGAGGTCCAACGAGATATGCACATATCGGAGTCACCTAGTGCAG	8050 fluorescence intensity (a.u.)
CACACTCTGAAACACACGCCGGTCGCCGTCGTCAACGTTGCGGAGTCACCTAGTGCAG	4320 fluorescence intensity (a.u.)
TGTGTCTTATTCAAACTTTTAAACATGGGAGGTGTCAGCCCGGAGTCACCTAGTGCAG	4950 fluorescence intensity (a.u.)
GCGGCATATGAGACCGGGAAGGAGACGCTGACCGGCGCACCGGAGTCACCTAGTGCAG	33800 fluorescence intensity (a.u.)
GCATCTCCATGGTCTCCTTGTCGACGCGGATCTCCTCCACCGGAGTCACCTAGTGCAG	3180 fluorescence intensity (a.u.)
GGCACATGTACGTATGTTTGATGTCACATAAATACGGTAACGGAGTCACCTAGTGCAG	3470 fluorescence intensity (a.u.)
ATTAGCACATTGGCCCACACGTAATACTCTCATTTGCTAGCGGAGTCACCTAGTGCAG	3580 fluorescence intensity (a.u.)
AATCGGACGCTGACGTCAGCGCCCGATTTTCCCTCACCCACGGAGTCACCTAGTGCAG	16600 fluorescence intensity (a.u.)
CCAGGAGATCACAATCGCCAAGTCAGATCCACCTTGCCTACGGAGTCACCTAGTGCAG	4980 fluorescence intensity (a.u.)
CTAGTTTTATGATTGAGGGATGTGACTCAATCAAGAGCGACGGAGTCACCTAGTGCAG	3490 fluorescence intensity (a.u.)
AAGTCTAGTTTTATTGCATGACTTGTGGTCTGACTCCACACGGAGTCACCTAGTGCAG	3590 fluorescence intensity (a.u.)
CCCTCCTCTCCGCGCGCGCCACCTGTCCATCCGCGCGGAGCGGAGTCACCTAGTGCAG	4750 fluorescence intensity (a.u.)
GGCCGCGGGAGACCGAGAGGCCTACCGTCCGGTGACTCCTCGGAGTCACCTAGTGCAG	3310 fluorescence intensity (a.u.)
GCGAACCCGCATCCCGTTCGGCCACGTCTCCCAGCTCCCGCGGAGTCACCTAGTGCAG	5620 fluorescence intensity (a.u.)
AGAACACATATGGCTCTGACATGGATTCATATCCATTGACCGGAGTCACCTAGTGCAG	3640 fluorescence intensity (a.u.)
CAGTTGCGTCATCTTGACACACGCACTATTCAGAAGAAAACGGAGTCACCTAGTGCAG	7040 fluorescence intensity (a.u.)
AGCGAGACACTTTGAGATTTAGTATGAGTCATGTAAATTACGGAGTCACCTAGTGCAG	7830 fluorescence intensity (a.u.)
CCCGCCGTCGCCGGGGAAGACGACACGCCCGCCGTCCTTGCGGAGTCACCTAGTGCAG	3580 fluorescence intensity (a.u.)
GAGTGTTGACTCACCAACTAACTCAACCACGTCTGATGATCGGAGTCACCTAGTGCAG	4090 fluorescence intensity (a.u.)
CGCAGTGTAAAACGTCGTGGCAACCCCAACCGTCCCAATGCGGAGTCACCTAGTGCAG	4720 fluorescence intensity (a.u.)
AGAGGAGCAACAACTAGTGGGTGCTGGAGGAGTTCGTTGTCGGAGTCACCTAGTGCAG	16500 fluorescence intensity (a.u.)
CTCCACTGCCACTTCACTGATCGAGCTCACCTTTTCCTCTCGGAGTCACCTAGTGCAG	3820 fluorescence intensity (a.u.)
TAGCTACGAACCCGGACACATGCGTGTCTAAGTTCATAGCCGGAGTCACCTAGTGCAG	4150 fluorescence intensity (a.u.)
CATTGCAACGGTTCTGCTTGCTGCTGGTTCATCACTGTGCCGGAGTCACCTAGTGCAG	32000 fluorescence intensity (a.u.)
CTCGCAGCAGCAGCTCCAGCCTCTCGAGCCTCCACGTCACCGGAGTCACCTAGTGCAG	23400 fluorescence intensity (a.u.)

Exported as a markdown table: entries from further up.

| Sequence | binding signal |
| --- | --- |
| ATTAGCACATTGGCCCACACGTAATACTCTCATTTGCTAGCGGAGTCACCTAGTGCAG | 3580 fluorescence intensity (a.u.) |
| AATCGGACGCTGACGTCAGCGCCCGATTTTCCCTCACCCACGGAGTCACCTAGTGCAG | 16600 fluorescence intensity (a.u.) |
